Experimental data from publication PMC8709211 (Pharmaceutics, 2021).
End groups of sequences in plain letters are not given here.

Experiment: general procedure: Fmoc solid-phase peptide synthesis; Rink amide resin; Oxyma/DIC; HATU/DIPEA
Settings: whole synthesis, UV-chromatogram (HPLC), 10-60% ACN in water (0.1% TFA) over 15 min

Substance	final HPLC purity
1GLRKRLRKFRNKIKEK16	>99%
1LLIILRRRIRKQAHAHSK18	>97%
CB-KKKK-LLIILRRRIRKQAHAHSK	>97%
GLRKRLRKFRNKIKEK	>99%
K-GLRKRLRKFRNKIKEK	>99%
K-LLIILRRRIRKQAHAHSK	>99%
KK-GLRKRLRKFRNKIKEK	>95%
KK-LLIILRRRIRKQAHAHSK	>99%
KKK-LLIILRRRIRKQAHAHSK	>98%
KKKK-GLRKRLRKFRNKIKEK	>98%
KKKK-LLIILRRRIRKQAHAHSK	>99%

Same assay, conditions: whole synthesis, UV-chromatogram (HPLC), 10-60% ACN in water (0.1% TFA) over 15 min; run 1

Substance	final HPLC purity
CB-KKKK-GLRKRLRKFRNKIKEK [CB5-CF-sC18]	>97%
CB-KKKK-GLRKRLRKFRNKIKEK [CB5-sC18]	>96%
KKK-GLRKRLRKFRNKIKEK [CB3-CF-sC18]	>96%
KKK-GLRKRLRKFRNKIKEK [CB3-sC18]	>97%
